# Results from one PubChem assay

Source: PubChem BioAssay AID912 (NCATS, 2007).

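A cell-based FRET test of anthrax lethal toxin entry, tracked through the 460 nm emission signal; the cell line is not named here.
Each compound was tested as a concentration series from about 0.0005 to 40 µM.
The number is the fitted AC50 of the 460 nm signal alone; lower values mean a more potent effect. A falling signal goes with compounds filed as inhibitors or cytotoxic, a rising one with activators or fluorescent compounds (inferred from the filed classes).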

Values are in nM.
Common to all entries: measured here: 460 nm channel.
Part of the compounds only, not a random draw; the main read-out is not listed here.
A potency from a partial, single-point or poor curve is only a rough figure.
The first word of each remark tells which way the curve ran; it can be opposite to the aim of the assay.

Compound	AC50 (nM)	curve
O=C(c1ccncc1)N1CCC2(CC1)CN(Cc1cc(C(F)(F)F)cc(C(F)(F)F)c1)C2	794.3	falling, full curve
COc1ccc(C(c2ccc(OC)cc2)C(Cl)(Cl)Cl)cc1	15848	falling, partial curve
COc1cccc(-c2cc(C(=O)N3CCN(c4ncccn4)CC3)c3ccccc3n2)c1	31622	falling, single point
CCOC(=O)Cn1c(=O)oc2cc(S(=O)(=O)N3CCCc4ccccc43)ccc21	31622	falling, single point
COc1ccc2[nH]cc(CCNc3cc(-c4ccccc4CN(C)C)ncn3)c2c1	3981	falling, partial curve
C=CCNC(=O)Cn1nc(-c2ccccc2)ccc1=O	1259	falling, partial curve
N=c1c2c(-c3ccccc3)c(-c3ccccc3)n(Cc3ccco3)c2ncn1CCN1CCOCC1	10000	falling, partial curve, poor fit
CN[C@@H]1C[C@H](c2ccc(Cl)c(Cl)c2)c2ccccc21	25118	falling, partial curve
Cc1ccc(-n2nc(-c3ccc(N)cc3)cc2N)cc1	15848	falling, partial curve
COc1ccc2c(c1)c(C(=O)CN1CCC3(CC1)OCCO3)c(C)n2C	15.85	falling, full curve, poor fit
N#C/C(=C\c1ccc(O)c(O)c1)C(=O)NCCc1ccccc1	31622	falling, single point
O=C(C1CCN(c2ccc(N3CCOCC3)nn2)CC1)N1CCc2ccccc2C1	12589	rising, single point
CCOc1ccccc1N1CCN(c2nc(N)c(C#N)c(CC#N)c2C#N)CC1	12589	falling, partial curve
CCN(CC)c1ccc2c(c1)oc(=O)c1c(Cl)cc(=O)oc12	12589	rising, partial curve
CCOC(=O)CNC(=O)CSc1ncnc2c1cnn2Cc1ccccc1	12589	rising, single point
Cc1cccc(NS(=O)(=O)c2ccc(C)c(C(=O)OCC(=O)Nc3cc(C)on3)c2)c1	15848	falling, partial curve, poor fit
Nc1nc(N)c(N=Nc2ccc([As](=O)(O)O)c(O)c2)c(N)n1	2512	falling, partial curve
Cc1nc(Nc2ccc(S(N)(=O)=O)cc2)oc1C	199.5	falling, full curve, poor fit
CCCC[C@@H]1C[C@H]1C(NC(=O)c1cccnc1)c1ccc(Cl)cc1 (stereo partly drawn)	10000	falling, single point
BrCC(Br)(Br)Br	12589	falling, partial curve
COCCn1c(=O)c(-c2ccc(OC)cc2)nc2cnc(N3CCNCC3)nc21	12589	rising, partial curve
CCN(CC)CCCN(Cc1cc2cc(OC)ccc2[nH]c1=O)C(=O)Nc1ccc(F)cc1	10000	falling, partial curve
C=CCN1C[C@H](C)N([C@H](c2ccc(C(=O)N(CC)CC)cc2)c2cccc(OC)c2)C[C@H]1C	10000	falling, full curve
COc1ccc(-n2c(Cn3c(=O)sc4ccccc43)nnc2SCC(=O)N2CCCC2)cc1	12589	rising, partial curve
COC(=O)/C=C/S(=O)(=O)c1ccc(NC(C)=O)cc1	3981	falling, full curve
CC1Cc2ccccc2N1C(=O)C1CCCN(S(=O)(=O)c2cccc3cccnc23)C1 (stereo not drawn)	19952	rising, single point
CN(C)c1ccc(NC(=O)CN2CCN(S(=O)(=O)c3cc(Cl)ccc3Cl)CC2)cc1	19952	rising, partial curve, poor fit
Cc1cc(O)cc(=O)n1Cc1ccco1	12589	falling, partial curve, poor fit
OC(CCCCN1CCCCC1)c1ccccc1 (stereo not drawn)	50.12	falling, full curve, poor fit
C=CCn1c(N)c(C(=O)NCC2CCCO2)c2nc3ccccc3nc21 (stereo not drawn)	10000	rising, partial curve
CC(C)c1ccc2oc(-c3ccc(N)cc3)nc2c1	19952	falling, partial curve
CCOC(=O)c1c(C)n(OCc2ccccc2)c2ccc3nonc3c12	19952	rising, single point
C/C(=C\C(=O)c1ccc(C)o1)Nc1ccc2c(c1)OCO2	25118	rising, single point
COc1ccccc1CNc1ncncc1-c1ccc(N(C)C)cc1	12589	falling, single point
Cc1ccccc1Nc1ncnc2c1cnn2-c1ccccc1	19952	falling, single point
CCOC(=O)c1[nH]c(CSc2nnc(-c3ccc(OC)cc3)o2)c(C(=O)OCC)c1C	398.1	falling, full curve
COc1ccccc1CN1CCCC2(CCN(C(=O)c3cccc(F)c3)CC2)C1	12589	falling, single point
O=C(c1ccc(COc2ccccc2Br)o1)N1CCCCCC1	31622	falling, single point
Cc1ccc(C2C3=C(CCCC3=O)Nc3nc(SCC(=O)NCc4ccco4)[nH]c(=O)c32)cc1 (stereo not drawn)	12589	rising, partial curve
O=C(Nc1nnc(-c2ccco2)s1)C1CCCCC1	3162	rising, single point
Cc1ccc(-n2nnnc2SCC(=O)Nc2cccc(NC(=O)c3ccco3)c2)cc1C	12589	falling, single point
COc1ccc(OC)c2[nH]c(=O)c(CCNC(=O)C(C)C)cc12	3162	rising, single point
Cc1cc(C(=O)COc2cccc(-n3cnnn3)c2)c(C)n1-c1ccccc1	31622	falling, single point
CCCCC(CC)CNC(=O)CN(C)S(=O)(=O)c1cccc2nsnc12 (stereo not drawn)	3162	falling, partial curve
Cc1cc(=O)oc2cc(OCC(=O)OCC(=O)NCc3ccc4c(c3)OCO4)ccc12	5012	falling, single point
Cc1ccc(CNC(=O)c2cc3c(=O)n4cccc(C)c4nc3n(CC3CCCO3)c2=N)cc1 (stereo not drawn)	25118	rising, single point
CN(C)c1nc(OCCNC(=O)COc2ccc(Cl)cc2Cl)nc(N2CCCCC2)n1	3162	falling, full curve, poor fit
COc1cccc(-c2cc(C(=O)Nc3cc(C)n(Cc4ccc(Cl)cc4)n3)no2)c1	5012	falling, partial curve
Fc1ccc(C(c2ccc(F)cc2)N2CCN(C/C=C\c3ccccc3)CC2)cc1	31622	falling, single point
FC(F)(F)c1ccccc1-c1ccc2ncnc(N3CCOCC3)c2c1	12589	rising, single point
O=C(c1csnn1)N1CCC2(CCCN(c3ccncc3)C2)CC1	19952	falling, single point

Once more, the final 4:

Compound,AC50 (nM),curve
COc1cccc(-c2cc(C(=O)Nc3cc(C)n(Cc4ccc(Cl)cc4)n3)no2)c1,5012,"falling, partial curve"
Fc1ccc(C(c2ccc(F)cc2)N2CCN(C/C=C\c3ccccc3)CC2)cc1,31622,"falling, single point"
FC(F)(F)c1ccccc1-c1ccc2ncnc(N3CCOCC3)c2c1,12589,"rising, single point"
O=C(c1csnn1)N1CCC2(CCCN(c3ccncc3)C2)CC1,19952,"falling, single point"